Reference: article PMC11488661 (2024)

Legend:
Assay in all cases: SPR; geometric mean of post-prime mAbs
[1] = molecular target: post-prime CLK19-lineage mAbs
[2] = molecular target: post-prime CLK21-lineage mAbs
[3] = molecular target: post-prime CLK09-lineage mAbs

B1: eOD-GT8 (monomeric ligand) (other)
chain: DTITLPCRPAPPPHCSSNITGLILTRQGGYSNANTVIFRPSGGDWRDIARCQIAGTVVSTQLFLNGSLAEEEVVIRSEDWRDNAKSICVQLATSVEIACTGAGHCAISRAKWANTLKQIASKLREQYGAKTIIFKPSSGGDPEFVNHSFNCGGEFFYCASTQLFASTWFASTGTGTK
Q: B1 was tested. Which Kd [1] did it give?
A: Its Kd is 2 nM.

Q: What about the Kd [2] of the same binder?
A: The Kd was 2.8 nM.

Q: And the Kd [3]?
A: The Kd was 8.6 nM.
